No constants are given. Whether binding was seen depends on the method and setting. Binding seen in cells or lysates may run through a third protein. Some binding calls cover weakened binding; strength is not graded here.
Legend:
[1] = target: GST-tagged Ras-binding domain of Raf-1 (GST-Raf-1 RBD beads) (UniProt P04049); assay: pull-down; 10 uL GST-Raf1-RBD beads incubated with 500 ug total lysate of MCF-7-TamR cells overnight at 4 °C, washed five times, western blot; cells transfected with NS siRNA or siNgBR, with or without 100 ng/mL EGF for 5 min; only the target purified
[2] = target: K-Ras (activated, GTP-loaded) (human (endogenous in MCF-7-TamR)) (UniProt P01116); assay: pull-down; complex of activated (GTP-loaded) Ras precipitated from total lysate of MCF-7-TamR cells with GST-Raf1-RBD beads, NgBR found in it by western blot; cells with or without 100 ng/mL EGF for 5 min, NS siRNA or siNgBR

B1: Nogo-B receptor (NgBR) (protein, UniProt Q96E22 1-293)
chain: MTGLYELVWRVLHALLCLHRTLTSWLRVRFGTWNWIWRRCCRAASAAVLAPLGFTLRKPPAVGRNRRHHRHPRGGSCLAAAHHRMRWRADGRSLEKLPVHMGLVITEVEQEPSFSDIASLVVWCMAVGISYISVYDHQGIFKRNNSRLMDEILKQQQELLGLDCSKYSPEFANSNDKDDQVLNCHLAVKVLSPEDGKADIVRAAQDFCQLVAQKQKRPTDLDVDTLASLLSSNGCPDPDLVLKFGPVDSTLGFLPWHIRLTEIVSLPSHLNISYEDFFSALRQYAACEQRLGK
[1]
  binding: binds
[2]
  binding: binds
